Values quoted from earlier work as cited in patent publication US8420621B2, “Methods of using gamma cyclodextrin to control blood glucose and insulin secretion” (Abbott Laboratories, priority 2004, dated 2013).

Details: white or almost-white crystalline solid; cited from earlier work

Structure (SMILES): OC[C@H]1O[C@@H]2O[C@H]3[C@H](O)[C@@H](O)[C@@H](O[C@H]4[C@H](O)[C@@H](O)[C@@H](O[C@H]5[C@H](O)[C@@H](O)[C@@H](O[C@H]6[C@H](O)[C@@H](O)[C@@H](O[C@H]7[C@H](O)[C@@H](O)[C@@H](O[C@H]8[C@H](O)[C@@H](O)[C@@H](O[C@H]9[C@H](O)[C@@H](O)[C@@H](O[C@H]1[C@H](O)[C@H]2O)O[C@@H]9CO)O[C@@H]8CO)O[C@@H]7CO)O[C@@H]6CO)O[C@@H]5CO)O[C@@H]4CO)O[C@@H]3CO [Gamma-Cyclodextrin, Gamma-cyclodextrin]
- Solubility in water: freely soluble in water
